The data set relates to WT mice. Kind of data set: Reversal of established Ang II-dependent cardiac hypertrophy (16 days infusion, injections from day 8). Type of data set: in vivo. Conditions: Ang II infusion 16 days; daily i.p. injections 20 mg/kg initiated at day 8. From the text: FIG. 10 is the experimental treatment protocol. To examine the therapeutic effect of p27 on established cardiac hypertrophy, p27 injections were initiated at 8 days after Ang II-infusion.
To examine the effect of transduced p27 on established cardiac hypertrophy, mice were chronically infused with Ang II for 16 days and intraperitoneally injected recombinant TAT-conjugated p27ΔPi and beta-galactosidase (β-Gal) proteins starting from day 8. After 16 days of Ang II-infusion, the heart/body weight ratio were increased by 45% compared to saline-infused controls (FIG. 11B; group 7 vs. group 6). […] Transduced p27ΔPi regressed the increase in heart size by 47% as compared to β-Gal control injections (group 3 vs group 4). In Ang II-infused mice treated with p27ΔPi values of left ventricular posterior wall and interventricular septum thickness, LVEDD, LVESD, FS and EF were not significant different compared to saline-infused mice. Thus, p27 can reverse established compensated cardiac hypertrophy without exerting any deleterious effect on cardiac function. […]
After fixation in paraformaldehyde (4% in PBS, pH 7.4), a transverse midsection (3 μm thickness) was stained with Alexa Fluor® 488-conjugated wheat germ agglutinin for cross sectional measurements. Cardiomycoyte area was determined by planimetry employing ImageJ software. A total of 200 cells were counted in each group.

Our source for the Body weight and Heart rate values is patent US20110086089A1, “USE OF P27KIP1 FOR THE PREVENTION AND TREATMENT OF HEART FAILURE” (UNIVERSITY HEALTH NETWORK, priority 2008, published 2011).

Take “TAT-β-Gal: recombinant TAT-conjugated beta-galactosidase, control injections”: the Body weight is recorded as 24 ± 1.2 g and the Heart rate amounted to 511 ± 24 b.p.m.
